Binding data for 5 substances are collected here from US20050220757A1.

Sequences of proteins named here, by UniProt entry; tags and fusion partners are left off. A change or cut given only in a name is not applied to a line headed by its entry. Residues count along the entry.
UniProt P13501, residues 24-91: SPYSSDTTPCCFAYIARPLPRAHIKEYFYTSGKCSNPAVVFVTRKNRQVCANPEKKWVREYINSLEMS

No constants are given. Whether binding was seen depends on the method and setting. Some entries that bind do so weakly or less than the wild type.

This test deals with T1, CCR1 (UniProt P32246).
T1 sequence (looked up): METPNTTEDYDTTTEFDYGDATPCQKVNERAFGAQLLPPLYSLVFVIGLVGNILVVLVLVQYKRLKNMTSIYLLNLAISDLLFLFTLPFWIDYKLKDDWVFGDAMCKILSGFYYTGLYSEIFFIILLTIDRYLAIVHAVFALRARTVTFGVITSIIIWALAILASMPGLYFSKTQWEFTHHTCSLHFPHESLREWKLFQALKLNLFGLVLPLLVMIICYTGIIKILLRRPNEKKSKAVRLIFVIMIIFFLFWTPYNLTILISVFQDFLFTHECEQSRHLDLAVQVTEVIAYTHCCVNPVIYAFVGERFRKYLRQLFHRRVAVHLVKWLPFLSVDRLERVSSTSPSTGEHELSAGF
Description: equilibrium competition SPA, [125I]-MIP-1α tracer, CHO membranes expressing CCR1.
Turning to “RANTES (from UniProt P13501 24-91) (ligand)”, the binding result is on record as “binds”. In the case of “RANTES G32D (from UniProt P13501 24-91) (ligand)”, the binding result is recorded as “binds”. For “RANTES G32K (from UniProt P13501 24-91) (ligand)” the value was “binds”; for “RANTES G32N (from UniProt P13501 24-91) (ligand)”, “binds”; for “RANTES G32P (from UniProt P13501 24-91) (ligand)”, “binds”.
